The target of the assay is T1, Polycomb (Pc) (Drosophila (endogenous in S2 cells)) (UniProt P26017).
T1 sequence: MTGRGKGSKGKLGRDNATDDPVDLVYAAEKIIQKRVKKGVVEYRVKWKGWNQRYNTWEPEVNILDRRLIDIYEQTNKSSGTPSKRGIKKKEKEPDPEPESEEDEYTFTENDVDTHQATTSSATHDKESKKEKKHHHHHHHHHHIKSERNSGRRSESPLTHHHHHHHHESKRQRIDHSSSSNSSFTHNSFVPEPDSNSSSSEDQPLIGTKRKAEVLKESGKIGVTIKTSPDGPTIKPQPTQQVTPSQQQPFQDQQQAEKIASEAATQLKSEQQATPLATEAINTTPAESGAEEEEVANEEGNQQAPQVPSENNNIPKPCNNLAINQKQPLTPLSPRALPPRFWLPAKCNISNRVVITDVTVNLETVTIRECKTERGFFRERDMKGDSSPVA
In words: co-IP; total lysates of FLAG-CCT7 stable S2 cells and empty-vector cells (50 mM NaCl, 50 mM Tris pH 8.0, 1 mM EDTA, 1% Triton X-100; sonicated); precipitated with anti-Pc antibody and DYNA beads at 4°C; Western blot with anti-FLAG and anti-Pc. A general note: In western blotting, separated proteins are transferred to a membrane and probed.

Results are given in words; binding and its absence hold for the method and conditions named. In cells and extracts the contact can be indirect. Some results given as binding are weak or reduced against the parent protein; the word gives no strength. Tags and fused reporters may be left off the sequences shown.

B1: FLAG-CCT7 (chaperonin containing TCP-1 subunit 7, FLAG-tagged) (protein, UniProt Q9VHL2 1-544)
chain: MQPQIVLLKEGTDSSQGKPQLVSNINACQSIVDAVRTTLGPRGMDKLIVDAHGKATISNDGATIMKLLEIIHPAAKTLVDIAKSQDAEVGDGTTSVVLLAGEFLKQVKPFVEEGVHPRVIIKAIRKALQLCMEKINEMAVQIVEQSKDQQRALLEKCAATAMSSKLIHQQKDFFSRIVVDAVLSLDELLPLNMIGIKKVTGGSLEESQLVSGVAFKKTFSYAGFEMAPKSYDNCKIALLNIELELKAERDNAEIRVDNVKEYQKVVDAEWQILYNKLAKIHESGANVVLSKLPIGDVATQYFADRDIFCAGRVPEEDLKRTMKACGGAVMTTANDIKPNVLGLCEHFEERQVGGERFNLFQGCPNAKTSTLILRGGAEQFLEETERSLHDAIMIVRRTIKHDSVVAGGGAIEMELSKLLRDYSRTIAGKEQLLIAAIAKGLEIIPRQLCDNAGFDATNILNKLRQKHAQGGQWYGVDINKEDISDNYEQCVWEPSIIKINALTAAAEAACMILSVDETIKSPKAGEPPMAGGGMGMGRGMGRPM
On to B1, for which the binding result is given as “binds”.

The record behind these values is publication PMC8517254.
